Measurements published in patent US20090304827A1, “Combinations of Ingredients Having Synergistic Anti-Inflammatory Effects” (priority 2008, published 2009).
For at least one compound, name, drawing or mass did not settle the structure.

Test system: LPS-induced nitrite (NO) generation on murine macrophage RAW264.7 cells
Assay: Nitrite assay: LPS-induced nitrite (NO) generation, Griess reaction
Format: cell-based
Source text: The term “synergy” refers to the phenomenon in which the combination of two or more discrete agents acting together can cause a greater response than simply the sum of the individual effects of each agent if they were used separately. It is not uncommon to find the presence of two or more chemical constituents or herbs on an organism to be greater than the effect of each chemical constituent or herb individually, or the sum of the individual effects. […]
The nitrite concentration in the medium was measured as an indicator of NO production, a common phenomenon of the inflammation process, according to the Griess reaction. […] One hundred microliters of supernatant was mixed with the same volume of Griess reagent (1% sulfanilamide in 5% phosphoric acid and 0.1% naphthylethylenediamine dihydrocholide in water); absorbance of the mixture at 550 nm was determined with an ELISA plate reader (Dynatech MR-7000; Dynatech Laboratories Inc.).
Various combinations of herbal extracts were investigated for anti-inflammatory effect using nitrite assay. For the study, RAW 264.7 cells were treated with LPS (10 μg/mL) to induce nitrite production, various concentrations and combinations thereof were added, and the nitrite concentration in the medium was measured as an indicator of the inhibition of NO production, a common phenomenon of the inflammation process.

Compound: CC/C=C\C/C=C\C/C=C\C/C=C\C/C=C\C/C=C\CCC(=O)O [DHA, docosahexaenoic acid]
- synergistic effects against LPS induced NO production (in words): particularly notable
